Source: article PMC9750872, “Ras-mutant cancers are sensitive to small molecule inhibition of V-type ATPases in mice” (Nature biotechnology, 2022)
Counter-ions that a name gives are not always drawn. Like-named read-outs stand apart in the source and are kept apart here.

Test system: 12 human primary cell-based systems
Experiment: BioMAP profiling and benchmarking against reference database

## COc1cc2c(cc1O)CC[C@@H]1[C@@H]2CC[C@]2(C)[C@@H](O)CC[C@@H]12 [2-Methoxyestradiol]
Target agent 10 uM
  Z-Score vs UCSF_249C: 11.372

## O=c1[nH]cc(F)c(=O)[nH]1 [5-Fluorouracil]
Target agent 90 uM
  Z-Score vs UCSF_249C: 12.505

## O=[N+]([O-])c1ccc(O)c2ncccc12 [8-Hydroxy-5-nitroquinoline]
Target agent 10 uM
  Z-Score vs UCSF_249C: 13.184
Target agent 30 uM
  Z-Score vs UCSF_249C: 13.492

## CC(C)CC[C@@H](O)[C@@H](C)[C@H]1CC[C@H]2[C@@H]3CC=C4C[C@@H](O)CC[C@]4(C)[C@H]3CC[C@]12C [22(R)-Hydroxy Cholesterol]
Target agent 10 uM
  Z-Score vs UCSF_249C: 12.27

## COc1ccc(CCN2CCC(Nc3nc4ccccc4n3Cc3ccc(F)cc3)CC2)cc1 [Astemizole]
Target agent 5.6 uM
  Z-Score vs UCSF_249C: 11.765

## CC(C)c1c(C(=O)Nc2ccccc2)c(-c2ccccc2)c(-c2ccc(F)cc2)n1CC[C@@H](O)C[C@@H](O)CC(=O)O [Atorvastatin Calcium (Lipitor), Atorvastatin Calcium]
Target agent 10 uM
  Z-Score vs UCSF_249C: 13.18

## CC[C@H]1OC(=O)[C@H](C)[C@@H](O[C@H]2C[C@@](C)(OC)[C@@H](O)[C@H](C)O2)[C@H](C)[C@@H](O[C@@H]2O[C@H](C)C[C@H](N(C)C)[C@H]2O)[C@](C)(O)C[C@@H](C)CN(C)[C@H](C)[C@@H](O)[C@]1(C)O [Azithromycin]
Target agent 100 uM
  Z-Score vs UCSF_249C: 12.047

## CO/C1=C\C(C)=C\[C@@H](C)[C@@H](O)[C@@H](C)C/C(C)=C/C=C/[C@H](OC)[C@@H]([C@@H](C)[C@@H](O)[C@H](C)[C@@]2(O)C[C@@H](O)[C@H](C)[C@@H](C(C)C)O2)OC1=O [Bafilomycin A1]
Target agent 4.1 nM
  Z-Score vs UCSF_249C: 19.849
Target agent 12 nM
  Z-Score vs UCSF_249C: 21.738
Target agent 37 nM
  Z-Score vs UCSF_249C: 19.253
Target agent 110 nM
  Z-Score vs UCSF_249C: 18.17
Target agent 330 nM
  Z-Score vs UCSF_249C: 17.81

## COc1ccc(NC(=O)c2cc(OCCCN(C)C)nn2Cc2ccccc2)cc1.Cl [CFM 1571 Hydrochloride]
Target agent 30 uM
  Z-Score vs UCSF_249C: 14.001

## COc1cc2nc(-c3ccc(N4CCN(C)CC4)cc3)nc(NCCN3CCOCC3)c2cc1OC [CPG 52364]
Target agent 3.3 uM
  Z-Score vs UCSF_249C: 14.469

## CCN(CC)CCCC(C)Nc1ccnc2cc(Cl)ccc12 (stereo not shown) [Chloroquine, chloroquine]
Target agent 30 uM
  Z-Score vs UCSF_249C: 13.832

## CN1CCN(C2=Nc3cc(Cl)ccc3Nc3ccccc32)CC1 [Clozapine]
Target agent 30 uM
  Z-Score vs UCSF_249C: 12.077

## C/C(O)=C(\C#N)C(=O)Nc1ccc(C(F)(F)F)cc1 [Compound A771726]
Target agent 50 uM
  Z-Score vs UCSF_249C: 11.7

## O=S(=O)(NCCNC/C=C/c1ccc(Br)cc1)c1cccc2cnccc12 [Compound H-89, H-89]
Target agent 10 uM
  Z-Score vs UCSF_249C: 15.478

## C/C=C/[C@H]1O[C@@](O)([C@@H](C)[C@H](O)[C@H](C)[C@H]2OC(=O)/C(OC)=C/C(C)=C/[C@@H](C)[C@@H](O)[C@@H](CC)[C@@H](O)[C@H](C)C/C(C)=C/C=C/[C@@H]2OC)C[C@@H](O[C@H]2C[C@@H](O)[C@H](OC(N)=O)[C@@H](C)O2)[C@@H]1C [Concanamycin A]
Target agent 140 pM
  Z-Score vs UCSF_249C: 14.564
Target agent 410 pM
  Z-Score vs UCSF_249C: 18.096
Target agent 1.2 nM
  Z-Score vs UCSF_249C: 18.096
Target agent 3.7 nM
  Z-Score vs UCSF_249C: 19.138
Target agent 11 nM
  Z-Score vs UCSF_249C: 16.752
Target agent 33 nM
  Z-Score vs UCSF_249C: 18.893
Target agent 100 nM
  Z-Score vs UCSF_249C: 18.373

## CN1CCC(COc2cnc(-c3cccc(Cn4nc(-c5cccc(C#N)c5)ccc4=O)c3)nc2)CC1 [EMD-1214063]
Target agent 10 uM
  Z-Score vs UCSF_249C: 11.72

## CO[C@H]1C[C@@H]2CC[C@@H](C)[C@@](O)(O2)C(=O)C(=O)N2CCCC[C@H]2C(=O)O[C@H]([C@H](C)C[C@@H]2CC[C@@H](OCCO)[C@H](OC)C2)CC(=O)[C@H](C)/C=C(\C)[C@@H](O)[C@@H](OC)C(=O)[C@H](C)C[C@H](C)/C=C/C=C/C=C/1C [Everolimus]
Target agent 4.1 nM
  Z-Score vs UCSF_249C: 14.535
Target agent 37 nM
  Z-Score vs UCSF_249C: 14.898
Target agent 330 nM
  Z-Score vs UCSF_249C: 15.044
Target agent 1.1 uM
  Z-Score vs UCSF_249C: 14.557
Target agent 3.3 uM
  Z-Score vs UCSF_249C: 14.235

## CCCCCCCCc1ccc(CCC(N)(CO)CO)cc1 [FTY720]
Target agent 3.3 uM
  Z-Score vs UCSF_249C: 13.156

## COc1ccc(/C=C\c2cc(OC)c(OC)c(OC)c2)cc1OP(=O)(O)O [Fosbretabulin Disodium]
Target agent 41 nM
  Z-Score vs UCSF_249C: 13.965
Target agent 120 nM
  Z-Score vs UCSF_249C: 13.286
Target agent 370 nM
  Z-Score vs UCSF_249C: 11.987

## C[C@@H](Oc1cc(-n2cnc3ccc(CN4CCN(C)CC4)cc32)sc1C(N)=O)c1ccccc1C(F)(F)F [GSK-461364A]
Target agent 1.1 uM
  Z-Score vs UCSF_249C: 11.584
Target agent 3.3 uM
  Z-Score vs UCSF_249C: 12.399

## CCC(C)n1ncn(-c2ccc(N3CCN(c4ccc(OCC5COC(Cn6cncn6)(c6ccc(Cl)cc6Cl)O5)cc4)CC3)cc2)c1=O (stereo not shown) [Itraconazole]
Target agent 3.3 uM
  Z-Score vs UCSF_249C: 12.183
Target agent 10 uM
  Z-Score vs UCSF_249C: 12.79

## CC(C)(N)C(=O)N[C@H](COCc1ccccc1)C(=O)N1CCC2(CC1)CN(S(C)(=O)=O)c1ccccc12 [MK-0677]
Target agent 30 uM
  Z-Score vs UCSF_249C: 13.217

## CNCCC=C1c2ccccc2CCc2ccccc21 [Nortriptyline Hydrochloride]
Target agent 30 uM
  Z-Score vs UCSF_249C: 13.441

## CN(C(=O)CN(CCO)CC(=O)N(C)C(C)(C)Cc1ccccc1)C(C)(C)Cc1ccccc1 [Oxethazaine]
Target agent 10 uM
  Z-Score vs UCSF_249C: 14.875

## CC(=O)O[C@H]1C(=O)[C@@]2(C)[C@H]([C@H](OC(=O)c3ccccc3)[C@]3(O)C[C@H](OC(=O)[C@H](O)[C@@H](NC(=O)c4ccccc4)c4ccccc4)C(C)=C1C3(C)C)[C@]1(OC(C)=O)CO[C@@H]1C[C@@H]2O [Paclitaxel]
Target agent 10 uM
  Z-Score vs UCSF_249C: 11.49
Target agent 30 uM
  Z-Score vs UCSF_249C: 12.295

## Cl.Fc1ccc([C@@H]2CCNC[C@H]2COc2ccc3c(c2)OCO3)cc1 [Paroxetine HCl]
Target agent 30 uM
  Z-Score vs UCSF_249C: 13.113

## CC[C@@H]([C@H](C)O)n1ncn(-c2ccc(N3CCN(c4ccc(OC[C@@H]5CO[C@@](Cn6cncn6)(c6ccc(F)cc6F)C5)cc4)CC3)cc2)c1=O [Posaconazole]
Target agent 10 uM
  Z-Score vs UCSF_249C: 13.495
Target agent 30 uM
  Z-Score vs UCSF_249C: 12.067

## CCCCC[C@H](O)/C=C/[C@H]1C(=O)C[C@H](O)[C@@H]1C/C=C\CCCC(=O)O [Prostaglandin D2]
Target agent 10 uM
  Z-Score vs UCSF_249C: 11.974

## CCN(CC)CCCC(C)Nc1c2ccc(Cl)cc2nc2ccc(OC)cc12 (stereo not shown) [Quinacrine, quinacrine]
Target agent 3.3 uM
  Z-Score vs UCSF_249C: 13.764

## CO[C@H]1C[C@@H]2CC[C@@H](C)[C@@](O)(O2)C(=O)C(=O)N2CCCC[C@H]2C(=O)O[C@H]([C@H](C)C[C@@H]2CC[C@@H](O)[C@H](OC)C2)CC(=O)[C@H](C)/C=C(\C)[C@@H](O)[C@@H](OC)C(=O)[C@H](C)C[C@H](C)/C=C/C=C/C=C/1C [Rapamycin]
Target agent 4.1 nM
  Z-Score vs UCSF_249C: 13.838
Target agent 12 nM
  Z-Score vs UCSF_249C: 14.246
Target agent 37 nM
  Z-Score vs UCSF_249C: 14.667
Target agent 110 nM
  Z-Score vs UCSF_249C: 14.542
Target agent 330 nM
  Z-Score vs UCSF_249C: 14.355
Target agent 1 uM
  Z-Score vs UCSF_249C: 14.447
Target agent 3 uM
  Z-Score vs UCSF_249C: 14.478
Target agent 9 uM
  Z-Score vs UCSF_249C: 14.773

## CC1=C(/C=C/C(C)=C/C=C/C(C)=C/CO)C(C)(C)CCC1 [Retinol]
Target agent 30 uM
  Z-Score vs UCSF_249C: 11.944

## C=C(C)[C@H]1Cc2c(ccc3c2O[C@@H]2COc4cc(OC)c(OC)cc4[C@@H]2C3=O)O1 [Rotenone]
Target agent 3.3 uM
  Z-Score vs UCSF_249C: 13.895
Target agent 10 uM
  Z-Score vs UCSF_249C: 12.936

## OC(c1ccc(-c2ccc(CN3CCN(Cc4ccncc4)CC3)cc2)c(F)c1)(C(F)(F)F)C(F)(F)F [SR2211]
Target agent 10 uM
  Z-Score vs UCSF_249C: 15.302

## CCC(=O)N1CCN(c2ccc(-n3c(=O)ccc4cnc5ccc(-c6cnc7ccccc7c6)cc5c43)cc2C(F)(F)F)CC1 [Torin, Torin1]
Target agent 12 nM
  Z-Score vs UCSF_249C: 12.435
Target agent 37 nM
  Z-Score vs UCSF_249C: 12.615

## Nc1ccc(-c2ccc3ncc4ccc(=O)n(-c5cccc(C(F)(F)F)c5)c4c3c2)cn1 [Torin-2]
Target agent 12 nM
  Z-Score vs UCSF_249C: 12.186

## C=C[C@]1(C)C[C@@H](OC(=O)CSC(C)(C)CNC(=O)[C@H](N)C(C)C)[C@]2(C)[C@H](C)CC[C@]3(CCC(=O)[C@H]32)[C@@H](C)[C@@H]1O.Cl [Valnemulin HCl]
Target agent 30 uM
  Z-Score vs UCSF_249C: 13.254

## COc1ccc(CCN(C)CCCC(C#N)(c2ccc(OC)c(OC)c2)C(C)C)cc1OC (stereo not shown) [Verapamil]
  Z-Score vs UCSF_249C: 12.312

## Nc1ccc(C(=O)Nc2cccc(-c3nc(N4CCOCC4)c4oc5ncccc5c4n3)c2)cn1 [YM-201636]
Target agent 1.1 uM
  Z-Score vs UCSF_249C: 12.478
Target agent 3.3 uM
  Z-Score vs UCSF_249C: 15.123

## Bleomycin Sulfate
Target agent 30 uM
  Z-Score vs UCSF_249C: 12.593
